The list is a part of this screen's results and no random one: it gathers tests that were run many times, whatever their T/C, doses with no T/C, and many T/C values between a quarter and a half above the control. Other doses and runs of a compound stand elsewhere. T/C gives the treated animals as a percentage of the vehicle group. Some doses have a count of surviving animals in place of a T/C: the source holds a T/C of zero for them, seemingly a mark for toxic or unscored doses. Survivors were counted at the toxicity check, usually on the fifth day, unless a day is given; later deaths do not show. Schedule codes are those of the source, read here as Q, the interval in days (D) or hours (H), X, the number of doses.
Tested on: CD2F1 mice, L1210 leukemia ip, survival T/C
Test: NCI In Vivo Anticancer Drug Screen. Data for tumor model L1210 Leukemia (intraperitoneal) in CD2F1 (CDF1) mice
Conditions: higher T/C = longer survival
Summary of the method: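 Vehicle-treated tumor-bearing mice served as controls (C) for compound-treated mice (T). Reported figure is T divided by C.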

Row | Structure (SMILES) | survivor count (T/C endpoint: mean survival time, dose: 400.0 mg/kg/injection, schedule: Q01DX009 (ip), vehicle: saline with Tween-80) | survivor count (T/C endpoint: median survival time, dose: 400.0 mg/kg/injection, schedule: Q01DX009 (ip), vehicle: saline with Tween-80) | survivor count (T/C endpoint: mean survival time, dose: 200.0 mg/kg/injection, schedule: Q04DX003 (ip), vehicle: saline) | survivor count (T/C endpoint: mean survival time, dose: 400.0 mg/kg/injection, schedule: Q04DX003 (ip), vehicle: saline)
1 | CN=C(N)N/N=C(\C)c1ccc2c(c1)Cc1ccccc1-2 | 2 of 6 | 5 of 10 | – | –
2 | CCCCNCCCC | – | – | 0 of 6 | 0 of 6
